Laboratory results published in patent US8471035B1, “Two-photon absorbing arylamine-endcapped and dialkylfluorene-bridged benzobisthiazole compounds with high oleophilicity” (The United States of America as represented by the …, priority 2011, dated 2013).

Assay: Femtosecond two-photon-induced fluorescence (TPIF) two-photon spectrum
Type: physicochemical
Details: THF solution (10^−5 M)

CC(C)CCCC(C)CCC1(CCC(C)CCCC(C)C)c2cc(-c3ccc(N(c4ccccc4)c4ccccc4)cc3)ccc2-c2ccc(-c3nc4cc5sc(-c6ccc7c(c6)C(CCC(C)CCCC(C)C)(CCC(C)CCCC(C)C)c6cc(-c8ccc(N(c9ccccc9)c9ccccc9)cc8)ccc6-7)nc5cc4s3)cc21 (centres unmarked) [AF-358-118, 2,6-Bis{4-diphenylaminophenyl-7-[9,9-bis(3,7-dimethyloctyl)]fluoren-2-yl}-benzo[1,2-d;4,5-d′]bisthiazole]
σ2′ value at 800 nm (TPIF) (800 nm): ~800 GM | peak σ2′ value (TPIF) (at ˜760 nm): 1,520 GM
